We go through 22 compounds from PubChem BioAssay AID256 (DTP/NCI, 2004).

The test system of the assay is CD2F1 mice, L1210 leukemia ip, survival T/C. Kind of assay: NCI In Vivo Anticancer Drug Screen. Data for tumor model L1210 Leukemia (intraperitoneal) in CD2F1 (CDF1) mice. As to conditions: higher T/C = longer survival. The essentials:
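Ratio T/C, where T is the treated-group value and C the vehicle-dosed control value, from mice implanted with a transplantable tumor.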

Setting [1] is: T/C endpoint: mean survival time, dose: 400.0 mg/kg/injection, schedule: Q01DX001 (ip), vehicle: saline with Tween-80.
Where [2] appears, read: T/C endpoint: mean survival time, dose: 25.0 mg/kg/injection, schedule: Q01DX009 (ip), vehicle: saline with Tween-80.
Setting [3] is: T/C endpoint: mean survival time, dose: 50.0 mg/kg/injection, schedule: Q01DX009 (ip), vehicle: saline with Tween-80.
Where [4] appears, read: T/C endpoint: mean survival time, dose: 100.0 mg/kg/injection, schedule: Q01DX009 (ip), vehicle: saline with Tween-80.
Where [5] appears, read: T/C endpoint: mean survival time, dose: 200.0 mg/kg/injection, schedule: Q01DX009 (ip), vehicle: saline with Tween-80.
Where [6] appears, read: T/C endpoint: mean survival time, dose: 400.0 mg/kg/injection, schedule: Q01DX009 (ip), vehicle: saline with Tween-80.
[7] abbreviates: T/C endpoint: mean survival time, dose: 400.0 mg/kg/injection, schedule: Q01DX001 (ip), vehicle: saline.
[8] abbreviates: T/C endpoint: mean survival time, dose: 200.0 mg/kg/injection, schedule: Q01DX001 (ip), vehicle: saline.
The mark [9] stands for this setting: T/C endpoint: mean survival time, dose: 400.0 mg/kg/injection, schedule: Q04DX003 (ip), vehicle: saline with Tween-80.

The list is a part of this screen's results and no random one: it gathers tests that were run many times, whatever their T/C, doses with no T/C, and many T/C values between a quarter and a half above the control. Further doses and runs are listed elsewhere. T/C gives the treated animals as a percentage of the vehicle group. Some doses have a count of surviving animals in place of a T/C: the source holds a T/C of zero for them, seemingly a mark for toxic or unscored doses. Some doses without a T/C left all or most animals alive at the check, yet need not have been tolerated: survival well below the control is almost never listed, so the zero probably covers shortened survival too. Survivors were counted at the toxicity check, usually on the fifth day, unless a day is given; later deaths do not show. Schedules are NCI's codes, read here as Q, the interval in days (D) or hours (H), X, the number of doses. Counts like (3×) count equal records among those shown. Where survival is the endpoint, the PubChem record calls one and a half times the control and up active, and a quarter to a half above the control has no call in these data; cut-offs in other NCI protocols can differ. Some T/C values are followed by the survivors on the day toxicity was checked, most often the fifth; where none is given, no animal had died by that day. Some entries hold several experiments; the results are listed from low to high.

As for `O=C1N(C2CCCCC2)CC2C(c3cccnc3)NNC12O` (stereo not given), the survivor count under setting [1] is given as 6 of 6.
With `CCN(CC)c1cc(Cl)ccc1Cl`, the survivor count runs as follows: (T/C endpoint: mean survival time, dose: 100.0 mg/kg/injection, schedule: Q04DX002 (ip), vehicle: saline with Tween-80) 0 of 3; (T/C endpoint: mean survival time, dose: 200.0 mg/kg/injection, schedule: Q01DX001 (ip), vehicle: saline with Tween-80) 3 of 6; under setting [1], 2 of 6.
As to `CCN(Cc1ccc(Cl)c(Cl)c1)c1ccc2nc(N)nc(N)c2c1C`, the T/C is, setting by setting: (T/C endpoint: mean survival time, dose: 6.0 mg/kg/injection, schedule: Q01DX009 (ip), vehicle: water) 137 % of control; (T/C endpoint: mean survival time, dose: 12.0 mg/kg/injection, schedule: Q01DX009 (ip), vehicle: water) 137 % of control; (T/C endpoint: median survival time, dose: 12.0 mg/kg/injection, schedule: Q01DX009 (ip), vehicle: water) 145 % of control; (T/C endpoint: median survival time, dose: 24.0 mg/kg/injection, schedule: Q01DX009 (ip), vehicle: water) 142 % of control.
As for `O=C1C=CN(C2OC(CO)C(O)C2O)C(=O)C1` (stereo not given), the T/C runs as follows: under setting [2], 131 % of control; under setting [3], 142 % of control; (T/C endpoint: mean survival time, dose: 75.0 mg/kg/injection, schedule: Q01DX005 (iv), vehicle: saline) 127 % of control; (T/C endpoint: median survival time, dose: 12.5 mg/kg/injection, schedule: Q01DX009 (ip), vehicle: saline) 142 % of control; (T/C endpoint: median survival time, dose: 16.0 mg/kg/injection, schedule: Q01DX009 (ip), vehicle: saline) 143, 153, 154, 160 % of control; (T/C endpoint: median survival time, dose: 22.0 mg/kg/injection, schedule: Q01DX009 (ip), vehicle: saline, evaluated on day 45) 145 and 155 % of control. In addition, the T/C reads like this: (T/C endpoint: median survival time, dose: 22.0 mg/kg/injection, schedule: Q01DX009 (ip), vehicle: saline, evaluated on day 60) 157, 158, 160, 163 % of control; (T/C endpoint: median survival time, dose: 25.0 mg/kg/injection, schedule: Q01DX009 (ip), vehicle: saline) 141 % of control; (T/C endpoint: median survival time, dose: 33.0 mg/kg/injection, schedule: Q01DX009 (ip), vehicle: saline, evaluated on day 45) 157 and 163 % of control; (T/C endpoint: median survival time, dose: 33.0 mg/kg/injection, schedule: Q01DX009 (ip), vehicle: saline, evaluated on day 60) 156, 161, 169, 180 % of control; (T/C endpoint: median survival time, dose: 50.0 mg/kg/injection, schedule: Q01DX009 (ip), vehicle: saline, evaluated on day 5) 109 % of control; (T/C endpoint: median survival time, dose: 50.0 mg/kg/injection, schedule: Q01DX009 (ip), vehicle: saline, evaluated on day 60) 161, 167, 169, 174, 183 % of control. Moreover, the T/C (T/C endpoint: median survival time, dose: 200.0 mg/kg/injection, schedule: Q01DX009 (ip), vehicle: saline) is 132 % of control and the T/C (T/C endpoint: median survival time, dose: 400.0 mg/kg/injection, schedule: Q01DX009 (ip), vehicle: saline) is 132 % of control. Also, the survivor count (T/C endpoint: mean survival time, dose: 600.0 mg/kg/injection, schedule: Q01DX005 (iv), vehicle: saline) is reported as 6 of 6.
Regarding `CCOc1ccc(NC(=S)NC(=O)/C=C/c2ccccc2)cc1`, the T/C under setting [2] is 93, 102, 103, 107 % of control; the T/C under setting [3] was 93, 96, 96 [5 of 6 alive], 97 (2×), 98 % of control; the T/C under setting [4] is 101, 104, 105, 108, 109 [5 of 6 alive], 110 % of control; the T/C under setting [5] is 86, 94, 97 [5 of 6 alive], 106 % of control.
Take `CC1=C2C3OC(=O)C(C)C3CCC2(C)C=CC1=O` (stereo not given): the survivor count (T/C endpoint: mean survival time, dose: 400.0 mg/kg/injection, schedule: Q04DX002 (ip), vehicle: saline with Tween-80) is 1 of 3.
`c1ccc2c3c([nH]c2c1)CN1CCNCC1C3` (stereo not given): the survivor count runs as follows: under setting [4], 1 of 6; under setting [5], 1 of 6; under setting [6], 1 of 6.
For `Cc1ccc(S(=O)(=O)SC(F)(F)F)cc1`, the survivor count runs as follows: (T/C endpoint: mean survival time, dose: 20.0 mg/kg/injection, schedule: Q01DX001 (ip), vehicle: saline) 2 of 6; (T/C endpoint: mean survival time, dose: 40.0 mg/kg/injection, schedule: Q01DX001 (ip), vehicle: saline) 0 of 6; (T/C endpoint: mean survival time, dose: 80.0 mg/kg/injection, schedule: Q01DX001 (ip), vehicle: saline) 0 of 6.
Consider `Cc1c2ccncc2c(C)c2c1[nH]c1ccc(O)cc12`, for which the T/C (T/C endpoint: mean survival time, dose: 12.5 mg/kg/injection, schedule: Q04DX003 (ip), vehicle: other) is 136 % of control; the T/C (T/C endpoint: mean survival time, dose: 25.0 mg/kg/injection, schedule: Q04DX003 (ip), vehicle: other) is 141 % of control; the T/C (T/C endpoint: mean survival time, dose: 33.3 mg/kg/injection, schedule: Q04DX003 (ip), vehicle: water) is 130 % of control [5 of 6 alive]; the T/C (T/C endpoint: mean survival time, dose: 50.0 mg/kg/injection, schedule: Q04DX003 (ip), vehicle: water) is 129 and 148 % of control. Further, the survivor count is, setting by setting: (T/C endpoint: mean survival time, dose: 200.0 mg/kg/injection, schedule: Q04DX003 (ip), vehicle: water) 6 of 6; (T/C endpoint: mean survival time, dose: 400.0 mg/kg/injection, schedule: Q04DX003 (ip), vehicle: water) 4 of 6.
In the case of `N#CO`, the survivor count by setting is: (T/C endpoint: mean survival time, dose: 200.0 mg/kg/injection, schedule: Q01DX009 (ip), vehicle: saline sonified) 6 of 6; (T/C endpoint: mean survival time, dose: 400.0 mg/kg/injection, schedule: Q04DX003 (ip), vehicle: saline) 0 of 6.
Consider `C[N+](C)(C)c1ncnc2c1ncn2C1CCCO1` (stereo not given), for which the survivor count by setting is: (T/C endpoint: mean survival time, dose: 200.0 mg/kg/injection, schedule: Q01DX009 (ip), vehicle: saline) 0 of 6; (T/C endpoint: mean survival time, dose: 400.0 mg/kg/injection, schedule: Q01DX009 (ip), vehicle: saline) 0 of 6.
Consider `O=C(COc1cccc(Cl)c1)Nc1ccc(CN2C(=O)c3ccccc3C2=O)cc1`, for which the survivor count reads like this: (T/C endpoint: mean survival time, dose: 25.0 mg/kg/injection, schedule: Q01DX001 (ip), vehicle: Klucel (hydroxypropylcellulose) (HPC)) 3 of 3; (T/C endpoint: mean survival time, dose: 50.0 mg/kg/injection, schedule: Q01DX001 (ip), vehicle: Klucel (hydroxypropylcellulose) (HPC)) 3 of 3; (T/C endpoint: mean survival time, dose: 100.0 mg/kg/injection, schedule: Q01DX001 (ip), vehicle: Klucel (hydroxypropylcellulose) (HPC)) 3 of 3.
`O=S(=O)(Cl)c1ccc2cc3ccccc3cc2c1`: the survivor count under setting [7] was 2 of 6.
For `Cc1nnn2ccccc12`, the survivor count is recorded as 0 of 3 under setting [8] and 0 of 3 under setting [7].
As to `O=C(O)C(S)C(S)C(=O)O.[As]` (stereo not given), the survivor count by setting is: under setting [8], 0 of 6; under setting [7], 0 of 6.
With `NC(=O)c1c(Br)n(C2OC(CO)C(O)C2O)c2ncnc(N)c12` (stereo not given), the T/C under setting [4] is 137 % of control [4 of 6 alive] and the T/C under setting [5] is 135 % of control [5 of 6 alive]. Moreover, the survivor count under setting [6] was 0 of 6.
As to `NC(=O)c1ccc[n+](Cc2c(Cl)cccc2Cl)c1`, the survivor count is 4 of 6 (T/C endpoint: mean survival time, dose: 200.0 mg/kg/injection, schedule: Q04DX003 (ip), vehicle: saline with Tween-80) and 0 of 6 under setting [9].
For the compound `O=C(O)c1c2c(nc3ccccc13)-c1ccccc1C1(CCCC1)C2`, the survivor count under setting [9] is recorded as 3 of 6.
With `COC(=O)c1ccc(N=NN(C)COC(C)=O)cc1`, the T/C (T/C endpoint: median survival time, dose: 120.0 mg/kg/injection, schedule: Q01DX005 (ip), vehicle: Klucel (hydroxypropylcellulose) (HPC)) is 137 % of control.
Take `CC(=O)OCCCC(C)Nc1ccnc2cc(Cl)ccc12` (stereo not given): the survivor count under setting [9] is recorded as 2 of 6.
In the case of `CCCCCC(=O)SCC(=O)OCC(=O)[C@]1(O)Cc2c(O)c3c(c(O)c2[C@@H](OC2CC(N)C(O)C(C)O2)C1)C(=O)c1c(OC)cccc1C3=O` (stereo not given in full), the T/C was 141 % of control (T/C endpoint: mean survival time, dose: 1.56 mg/kg/injection, schedule: Q01DX005 (ip), vehicle: water); 148 % of control (T/C endpoint: mean survival time, dose: 3.13 mg/kg/injection, schedule: Q01DX005 (ip), vehicle: water, evaluated on day 30); 132 % of control (T/C endpoint: mean survival time, dose: 3.13 mg/kg/injection, schedule: Q01DX005 (ip), vehicle: water, evaluated on day 45). For the same compound, the survivor count (T/C endpoint: mean survival time, dose: 12.5 mg/kg/injection, schedule: Q01DX005 (ip), vehicle: water) was 5 of 6 (2×).
For `CN(CN1C(=O)CCC1=O)CN1C(=O)CCC1=O`, the survivor count (T/C endpoint: median survival time, dose: 800.0 mg/kg/injection, schedule: Q01DX005 (ip), vehicle: saline) is recorded as 0 of 6.
